Experimental data reported in publication PMC10163288.
The list shows a part of the results.

B1: il10ra_site1_sap_14_mot_HHH_b1_00456_000000263_0001_1_17_H_._HHH_b1_05223_0001_0000100007_0000001_0_0001_1_af2pred_dldesign_0_af2pred (protein)
chain: SSDYVAAAERVLTEEFEKAKAARDLEALRRLAHLAKAAAEIYQDPRLAAFAARLEAEAEALLSSS
B2: il10ra_site1_normal_mot_a6c796b944619e241e020fd597ddb6da_0001_af2_000000092_0001_15_31_H_._HHH_b1_07083_0001_0000200013_0000001_0_af2pred_0001 (protein)
chain: SSSSSSSEEVRARALVFMAKKASNPDAARIALEIALEIARKLNDEELVEEIEELLEEYSSSSSSS
B3: il10ra_site1_sap_19_mot_HHH_b2_01032_000000296_0001_1_18_H_._HHH_b2_05460_af2_0001_0000100004_0000002_0_0001_af2pred_dldesign_0_af2pred (protein)
chain: SSSSSSNLRQRARALYHFARLIKNPEARRLALEEALKVAKKAGDEELVKEIEAELAKVESSSSSS
B4: il10ra_site1_sap_7_mot_HHH_b1_03250_000000283_0001_1_15_H_._HHH_b1_01506_0001_0000100002_0000003_0_0001_af2pred_0001 (protein)
chain: SSSSSSEELKEVQKLIREAVQIEDPEEARKIAEEALELAKEANNELLRLIIEFLLEQLGSSSSSS
B5: il10ra_site1_normal_mot_HHH_b2_06602_000000226_0001_1_16_H_._HHH_b2_00812_0001_0000100003_0000001_0 (protein)
chain: SSSSSEEEAFQLAVQAYFALDQGDREEAEKLLEELRELVEELGDHNLEAYVMALEELVRELSSSS
B6: il10ra_site1_normal_mot_HHH_b1_02665_000000293_0001_1_18_H_._HHH_b2_02363_0001_0000500037_0000002_0 (protein)
chain: SSSSDELEELVEELRKLLEELGDRNAIFLLEQVLKLIEELNDPKLRERLEQLLRILERELSSSSS
B7: il10ra_site1_normal_mot_8756ee2cf497b5429c717dfc0c0bcfd6_0001_000000186_0001_1_13_H_._HHH_b2_02451_af2_0001_0000200003_0000002_0 (protein)
chain: SSSSDESQEVAEAIRKVAELLQEGDEEEAEELAEEALKIARELGNDVLVVQLEYLLKLAESSSSS
B8: il10ra_site1_sap_20_mot_HHH_b2_02053_af2_000000006_0001_3_19_H_._HHH_b1_02415_0001_0000100011_0000001_0_0001 (protein)
chain: SSSSSSDVEELLEEAQELAERGNPEEANKVLQEAVRAIYHLGDEELLQELWELVEKINSSSSSSS
B9: il10ra_site1_sap_17_mot_HHH_b1_04804_000000089_0001_44_57_H_._HHH_b1_06407_af2_0001_0000400025_0000001_0_0001 (protein)
chain: SSSSSQASQEAQRLLEEAAELLRNGNPEEAEKVAREALEVAEEGNNWAARFAIELLLRDIGSSSS
B10: il10ra_site1_sap_18_mot_HHH_b1_06788_af2_000000238_0001_19_36_H_._HHH_b2_05035_0001_0000300028_0000001_0_0001_af2pred_0001 (protein)
chain: SSSSSDAERAARSAVRAVRFLLELNDEERFEIALRVAKASAKDAGDEEVEEILEEIERRLSSSSS
B11: il10ra_site1_normal_mot_HHH_b2_08186_000000021_0001_43_56_H_._HHH_b1_06333_af2_0002_0000200009_0000001_0 (protein)
chain: SSSSDEKERVEELIEEAEKVYEEEKDPEKALEILLEALQLALEGNDPELLQELWKLLKELGSSSS
B12: il10ra_site1_normal_mot_HHH_b2_08144_af2_000000046_0001_38_52_H_._HHH_b1_04606_0001_0000200028_0000001_0 (protein)
chain: SSSSNEEHEELYRLSREAAELAAEGDEEEARELLEEAEELAKELGNRLFLIQLRFLLRLLSSSSS
B13: il10ra_site1_sap_20_mot_5aed09890fd46f02a60ca541bcb2e05a_0001_1_000000092_0001_15_31_H_._3e7f9dc7757c9be4a21a7eaad61dbf0f_0001_1_0001_0000100002_0000003_0_0001_ … (protein)
chain: SSSSDLEEEIEELREELREALERGDEELALRLLRRLLRLAQETNDRELLEELFEIARELASSSSS
B14: il10ra_site1_normal_mot_HHH_b2_01776_000000118_0001_38_52_H_._ems_3hC_921_0001_0001_0000100011_0000002_0 (protein)
chain: SSPEEAEKLLEEAEKLARELNDKNALFIVRQLKKLLKRAEELNDERAVELVLEVAKNLLEELESS
B15: il10ra_site1_sap_23_mot_HHH_b2_03240_000000221_0001_1_18_H_._HHH_b2_06996_0001_0000100001_0000001_0_0001 (protein)
chain: SSSSNVRERAARVAIEVLRIAFRRSDPEILREVWELFRRIIEEGDPELLEELEKLLEELRSSSSS
B16: il10ra_site1_sap_21_mot_HHH_b2_02694_000000228_0001_1_18_H_._HHH_b2_03245_af2_0001_0000400023_0000001_0_0001_af2pred_dldesign_0_af2pred (protein)
chain: SSSSDPEQEVVELIREVVRLKDAGKLEEAKEVLKKARELAEALGDAELIAAVEKVEKYVLSSSSS
B17: il10ra_site1_normal_mot_HHH_b2_02337_000000026_0001_38_52_H_._HHH_b2_04776_0001_0000200023_0000003_0 (protein)
chain: SSSSSSEEEEEIEELLEQLERAKSDEEISEVALRLVRLIWELNNQELLQRLWEIVKRLASSSSSS
B18: il10ra_site1_normal_mot_6bb093d23f5042b6c551c363657da53b_0001_1_000000153_0001_51_65_H_._cedd301b4a0c43ec11f1ac2dbd5fc5c2_0001_1_0001_0000400014_0000001_0_af2pr … (protein)
chain: SIAELIRLLTEDAADNPEALALVRDLARKYLSGTLKPEELKETTEKILELTKTPRREEILKLLEE

target: il10ra, Q13651; assay: yeast display titration

| Binder | apparent Kd |
| --- | --- |
| B1 | inactive: no binding seen |
| B2 | inactive: no binding seen |
| B3 | inactive: no binding seen |
| B4 | inactive: no binding seen |
| B5 | inactive: no binding seen |
| B6 | inactive: no binding seen |
| B7 | inactive: no binding seen |
| B8 | inactive: no binding seen |
| B9 | inactive: no binding seen |
| B10 | inactive: no binding seen |
| B11 | inactive: no binding seen |
| B12 | inactive: no binding seen |
| B13 | inactive: no binding seen |
| B14 | inactive: no binding seen |
| B15 | inactive: no binding seen |
| B16 | inactive: no binding seen |
| B17 | inactive: no binding seen |
| B18 | inactive: no binding seen |

Random excerpt: two entries already listed.

| Binder | apparent Kd |
| --- | --- |
| B14 | inactive: no binding seen |
| B13 | inactive: no binding seen |
